# Laboratory results published in patent US20100227824A1.
# Protein sequences, listed by entry. Tags and fused reporters are not part of them. Lines headed by an entry give the natural chain unless they say otherwise; changes in a name come on top. Residues count along the entry.
# UniProt P78423, residues 25-100: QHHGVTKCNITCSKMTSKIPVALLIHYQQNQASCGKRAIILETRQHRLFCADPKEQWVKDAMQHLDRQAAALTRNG
# UniProt P10145, residues 28-99: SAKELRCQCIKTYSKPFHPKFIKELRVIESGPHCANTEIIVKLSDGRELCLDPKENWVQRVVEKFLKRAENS
# UniProt P48061: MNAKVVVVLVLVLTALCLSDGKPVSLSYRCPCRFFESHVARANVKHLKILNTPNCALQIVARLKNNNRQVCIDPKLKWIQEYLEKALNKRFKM
# SDF-1β (CXCL12): residues 22-93 of P48061
# SDF-1 (isoform not told): residues 22-89 of P48061
# UniProt Q9Y258, residues 24-94: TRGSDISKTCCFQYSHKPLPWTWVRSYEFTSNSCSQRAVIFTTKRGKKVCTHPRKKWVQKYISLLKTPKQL
# UniProt P13501, residues 24-91: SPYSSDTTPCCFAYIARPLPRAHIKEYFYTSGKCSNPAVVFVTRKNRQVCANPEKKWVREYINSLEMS
# UniProt O15444, residues 24-150: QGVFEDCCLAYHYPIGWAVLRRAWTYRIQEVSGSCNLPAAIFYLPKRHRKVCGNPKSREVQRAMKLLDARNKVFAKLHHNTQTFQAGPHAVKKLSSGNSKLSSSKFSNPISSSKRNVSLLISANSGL
# No constants are given. Whether binding was seen depends on the method and setting. Some results given as binding are weak or reduced against the parent protein; the word gives no strength.
# T1: I-309 (CCL1) (UniProt P22362)
# T1 sequence (looked up): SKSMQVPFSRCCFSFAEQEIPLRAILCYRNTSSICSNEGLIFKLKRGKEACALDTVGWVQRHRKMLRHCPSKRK
# T2: BCA-1 (CXCL13) (UniProt O43927)
# T2 sequence (looked up): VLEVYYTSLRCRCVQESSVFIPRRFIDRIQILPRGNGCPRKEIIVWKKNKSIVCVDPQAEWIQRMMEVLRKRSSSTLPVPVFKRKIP
# T3: I-TAC (CXCL11) (UniProt O14625)
# T3 sequence (looked up): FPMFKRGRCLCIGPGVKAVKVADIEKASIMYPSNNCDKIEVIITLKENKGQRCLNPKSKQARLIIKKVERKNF
# Columns and labels:
# [1] = target: Fractalkine (CX3CL1) (UniProt P78423); experiment: micro-array, phage-presented peptide on printed CK
# [2] = target: IL-8 (CXCL8) (UniProt P10145); experiment: micro-array, phage-presented peptide on printed CK
# [3] = target: Fractalkine (CX3CL1) (UniProt P78423); experiment: micro-array, biotinylated peptide on printed CK
# [4] = target: SDF-1 (isoform not told) (UniProt P48061); experiment: micro-array, biotinylated peptide on printed CK
# [5] = target: IL-8 (CXCL8) (UniProt P10145); experiment: micro-array, biotinylated peptide on printed CK
# [6] = target: SDF-1 (isoform not told) (UniProt P48061); experiment: micro-array, phage-presented peptide on printed CK
# [7] = target: Eotaxin 3 (CCL26) (UniProt Q9Y258); experiment: micro-array, phage-presented peptide on printed CK
# [8] = target: RANTES (CCL5) (UniProt P13501); experiment: micro-array, phage-presented peptide on printed CK
# [9] = target: T1, I-309 (CCL1); experiment: micro-array, phage-presented peptide on printed CK
# [10] = target: T2, BCA-1 (CXCL13); experiment: micro-array, phage-presented peptide on printed CK
# [11] = target: T3, I-TAC (CXCL11); experiment: micro-array, phage-presented peptide on printed CK
# [12] = target: TECK (CCL25) (UniProt O15444); experiment: micro-array, phage-presented peptide on printed CK
# [13] = target: SDF-1β (CXCL12) (UniProt P48061); experiment: micro-array, phage-presented peptide on printed CK
Binder,binding [1],binding [2],also measured
HHTCSLHFP [Phage-Presented Peptide 16 (Ph-p16)],binds,binds,–
SYYDDVGL [Phage-Presented Peptide 27 (Ph-p27)],binds,binds,–
DYDYG [Phage-Presented Peptide 31 (Ph-p31)],binds,–,–
WVFGHGMCK [Phage-Presented Peptide 25 (Ph-p25)],binds,–,–
DRYLNIVHAT [Phage-Presented Peptide 18 (Ph-p18)],–,binds,–
LFGNDCE (biotinylated (N-terminus)) [Chemokine Binding Peptide 5 (CBP5)],–,–,binding [3]: binds; binding [4]: binds; binding [5]: binds
WVFGAAMCK [Phage-Presented Peptide 8.8 (Ph-p8.8)],binds,binds,binding [6]: binds
WVFGSGLCK [Phage-Presented Peptide 15 (Ph-p15)],binds,binds,–
DYDYGAPC [Phage-Presented Peptide 30 (Ph-p30)],binds,–,–
FFGLNNC (biotinylated (N-terminus)) [Chemokine Binding Peptide 10 (CBP10)],–,–,binding [3]: binds
TKCQKE [Phage-Presented Peptide 20 (Ph-p20)],binds,binds,–
HYTCSSHFP [Phage-Presented Peptide 17 (Ph-p17)],–,binds,–
WVFGNAMCK [Phage Presented (Ph) Peptide (p) 8],binds,binds,binding [7]: binds; binding [8]: binds; binding [9]: binds; binding [10]: binds; binding [11]: binds; binding [6]: binds; binding [12]: binds; binding [13]: binds
WVFGVHFCK [Phage-Presented Peptide 8.77 (Ph-p8.77)],binds,–,–
